The text below walks through data of patent US5624799.

Protein sequences, listed by entry. Tags and fused reporters are not part of them. Residues count along the entry.
UniProt P09874, 2-1014: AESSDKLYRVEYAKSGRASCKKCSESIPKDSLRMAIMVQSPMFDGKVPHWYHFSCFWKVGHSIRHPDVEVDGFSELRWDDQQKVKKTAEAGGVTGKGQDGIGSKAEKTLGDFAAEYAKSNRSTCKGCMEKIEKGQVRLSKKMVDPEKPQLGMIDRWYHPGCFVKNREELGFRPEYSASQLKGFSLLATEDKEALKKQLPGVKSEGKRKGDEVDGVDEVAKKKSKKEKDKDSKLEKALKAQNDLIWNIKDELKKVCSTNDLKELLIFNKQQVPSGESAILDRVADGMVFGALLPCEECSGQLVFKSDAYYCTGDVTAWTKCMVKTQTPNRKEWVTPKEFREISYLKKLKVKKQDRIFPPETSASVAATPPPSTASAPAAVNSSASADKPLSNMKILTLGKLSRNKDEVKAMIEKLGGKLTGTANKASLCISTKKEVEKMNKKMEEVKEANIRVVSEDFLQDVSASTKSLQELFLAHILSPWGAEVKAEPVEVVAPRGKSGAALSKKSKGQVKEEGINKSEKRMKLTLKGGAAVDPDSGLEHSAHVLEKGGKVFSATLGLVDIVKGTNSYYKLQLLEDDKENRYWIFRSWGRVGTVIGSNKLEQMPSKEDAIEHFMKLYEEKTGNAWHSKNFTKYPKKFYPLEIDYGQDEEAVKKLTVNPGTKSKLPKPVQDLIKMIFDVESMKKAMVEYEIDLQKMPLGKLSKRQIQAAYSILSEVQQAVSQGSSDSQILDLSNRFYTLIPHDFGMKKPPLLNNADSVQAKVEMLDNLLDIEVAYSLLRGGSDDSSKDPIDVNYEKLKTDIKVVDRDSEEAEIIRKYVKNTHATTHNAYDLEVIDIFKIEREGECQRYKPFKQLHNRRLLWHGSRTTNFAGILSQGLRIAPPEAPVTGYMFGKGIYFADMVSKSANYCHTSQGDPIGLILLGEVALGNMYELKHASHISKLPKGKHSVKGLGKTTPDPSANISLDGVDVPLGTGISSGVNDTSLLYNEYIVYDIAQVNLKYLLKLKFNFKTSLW

For data set [1], the target named is p114-MBP (crude cell extract) (Homo sapiens) (UniProt P09874). Put plainly: binding assay. As to conditions: south-western blot; 20 mM Tris-HCl pH 7.4, 50 mM NaCl, 5 mM MgCl2, salmon sperm DNA and poly(dI-dC) competitors, RT; detected in malignant breast tumors; protein in an extract. For orientation: Immunoblotting shows a protein as a band on a membrane.
Data set [2] addresses p114-MBP (Homo sapiens) (UniProt P09874). Put plainly: competition with a labelled probe. The following applies: purified native protein.
Data set [3] has the same target. Kind of data set: EMSA. The following applies: did not substantially bind mutant MAR probe; purified native protein; label: end-labeled at both ends by Klenow. Background: A gel shift assay detects complexes by their altered migration in electrophoresis.

Construct, isoform or probe ends are uncertain for at least one entry. For some of these results: A negative result means that nothing was seen under these conditions. For some of these results: Where cells or extracts were used, other partners may take part.

Turning to “TCTTTAATTTCTAATATATTTAGAATTC / TTCTAAATATATTAGAAATTAAAGAGAA [wild type MAR probe (25)5, concatemer of 5 ATC repeats]”, the binding result in data set [1] and in data set [2] (100 ng unlabelled wild type MAR competed away binding to labelled wild type MAR probe) was “binds” throughout.
In the case of “TCTTTAATTTCTACTGCTTTAGAA (double strand) [mutant MAR probe (24)8, concatemer of 8 ATC-like repeats]”, the binding result in data set [3] is “no binding”; in data set [2] (same amount of unlabelled mutant MAR did not compete, label: end-labeled at both ends by Klenow) it was “no binding”.
